Measured values as given in US7186551B1, “3′-phosphoadenosine -5′-phosphosulfate synthetase 2 (PAPSS2) sequence variants” (Mayo Foundation for Medical Education and Research, priority 2001, dated 2007).
Positions count from the first letter of the chain named.

B1: Glu10Lys: PAPSS2 polypeptide allozyme having a lysine at amino acid residue 10 in place of glutamic acid (adenine at nucleotide 28) (protein)
chain: MSGIKKQKTKNQQKSTNVVYQAHHVSRNKRGQVVGTRGGFRGCTVWLTGLSGAGKTTISFALEEYLVSHAIPCYSLDGDNVRHGLNRNLGFSPGDREENIRRIAEVAKLFADAGLVCITSFISPFAKDRENARKIHESAGLPFFEIFVDAPLNICESRDVKGLYKRARAGEIKGFTGIDSDYEKPETPERVLKTNLSTVSDCVHQVVELLQEQNIVPYTIIKDIHELFVPENKLDHVRAEAETLPSLSITKLDLQWVQVLSEGWATPLKGFMREKEYLQVMHFDTLLDDGVINMSIPIVLPVSAEDKTRLEGCSKFVLAHGGRRVAILRDAEFYEHRKEERCSRVWGTTCTKHPHIKMVMESGDWLVGGDLQVLEKIRWNDGLDQYRLTPLELKQKCKEMNADAVFAFQLRNPVHNGHALLMQDTCRRLLERGYKHPVLLLHPLGGWTKDDDVPLDWRMKQHAAVLEEGVLDPKSTIVAIFPSPMLYAGPTEVQWHCRSRMIAGANFYIVGRDPAGMPHPETKKDLYEPTHGGKVLSMAPGLTSVEIIPFRVAAYNKAKKAMDFYDPARHNEFDFISGTRMRKLAREGENPPDGFMAPKAWKVLTDYYRSLEKN
B2: Val291Met: PAPSS2 polypeptide allozyme having a methionine at amino acid 291 in place of valine (adenine at nucleotide 871) (protein)
chain: B1 chain with K10E, V291M

System: immunoreactive PAPSS2 protein
Test: Quantitative Western blot of recombinant PAPSS2 allozymes expressed in COS-1 cells (anti-His antibody)
Set-up: species or system human
Conditions: COS-1 cell preparations, gel loading corrected for transfection efficiency, relative to wild type
Protocol: Western Blot Analysis: Quantitative Western blot analysis was performed with recombinant PAPSS2 allozymes after expression in COS-1 cells. Since all constructs included an N-terminal His-tag, we used anti-His monoclonal antibodies (Invitrogen) to measure levels of immunoreactive PAPSS2 protein with the ECL detection system (Amersham Pharmacia, Piscataway, N.J.). The quantity of COS-1 cell preparation loaded on the gel for each allozyme was adjusted to achieve equal quantities of β-galactosidase activity, i.e., gel loading was adjusted to correct for transfection efficiency. The AMBIS Radioanalytic Imaging System, Quant Probe Version 4.31 (Ambis, Inc., San Diego, Calif.) was used to quantitate immunoreactive protein in each lane, and those data were expressed as a percentage of the intensity of the wild type PAPSS2 band on the gel.
To determine whether decreases in levels of variant allozyme PAPSS2 activity might be related to quantity of immunoreactive enzyme protein, quantitative Western blot analyses were conducted. […] Furthermore, these COS-1 cell preparations contained β-galactosidase activity similar to that observed with other recombinant allozymes. The enzyme activity results thus were not the result of low transfection efficiency.

| Molecule | level of immunoreactive protein |
| --- | --- |
| B1 | significant reduction in the level of immunoreactive protein |
| B2 | did not result in a change in the level of immunoreactive protein |
